# Data from patent publication US20200256880A1, “Neuronal Assay Method Involving Calcineurin” (The Broad Institute, Inc., priority 2017, published 2020).
# For at least one compound, name, drawing or mass did not settle the structure.
# Test system: phospho-S469 CNAα in rat hippocampal neurons
# Format: cell-based
structure (smiles),measurement,value
CN1CCc2cc3c(cc2[C@H]1[C@@H]1OC(=O)c2c1ccc1c2OCO1)OCO3 [bicuculline],levels of phospho-S469 CNAα within dendrites,significantly and robustly increased
